# Data from the supplement of paper PMC8728848.
# This is one part of the list.
# B1: SspB C123 (Streptococcus gordonii), Q54186 (protein)
# chain: MAHFHYSSLLAQPQINKEIKNEDGVDIDRTLVAKQSIGKFELKTEALTAGRPKTTSFVLVDPLPTGYKFDLDATKAASTGFDTTYDEASHTVTFKATDETLATYNADLTKPVETLHPTVVGRVLNDGATYTNNFTLTVNDAYGIKSNVVRVTTPGKPNDPDNPNNNYIKPTKVNKNKEGLNIDGKEVLAGSTNYYELTWDLDQYKGDKSSKEAIQNGFYYVDDYPEEALDVRPDLVKVADEKGNQVSGVSVQQYDSLEAAPKKVQDLLKKANITVKGAFQLFSADNPEEFYKQYVSTGTSLVITDPMTVKSEFGKTGGKYENKAYQIDFGNGYATEVVVNNVPKITPKKDVTVSLDPTSENLDGQTVQLYQTFNYRLIGGFIPQNHSEELEDYSFVDDYDQAGDQYTGNYKTFSSLNLTMKDGSVIKAGTDLTSQTTAETDATNGIVTVRFKEDFLQKISLDSPFQAETYLQMRRIAIGTFENTYVNTVNKVAYASAAALEHHHHHH
# Experiments:
# Test in all cases: glycan array binding signal (z-score within array); higher = stronger binding
# Details in all cases: glycan notation: IUPAC condensed, linker removed
# [1] = molecular target: Gal(b1-4)GlcNAc(b1-3)Gal(b1-4)Glc
# In short: (§1)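 Glycan array data came from 3228 arrays in the Consortium for Functional Glycomics database, and only arrays with an available protein sequence were kept. Glycan names were put into IUPAC-condensed notation, and columns mapping to the same glycan were averaged. The binding signal is a within-array Z-score, averaged across arrays of one protein sequence run at different concentrations or buffers and across linkers. A negative Z-score can be read as non-binding.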
# [2] = molecular target: Gal(b1-4)GlcNAc(b1-3)Gal(b1-4)GlcNAc
# In short: as §1
# [3] = molecular target: Gal(b1-4)GlcNAc(b1-3)Gal(b1-4)GlcNAc(b1-2)Man(a1-3)[Gal(b1-4)GlcNAc(b1-3)Gal(b1-4)GlcNAc(b1-2)Man(a1-6)]Man(b1-4)GlcNAc(b1-4)GlcNAc
# In short: as §1
# [4] = molecular target: Gal(b1-4)GlcNAc(b1-3)Gal(b1-4)GlcNAc(b1-2)Man(a1-3)[Gal(b1-4)GlcNAc(b1-3)Gal(b1-4)GlcNAc(b1-2)Man(a1-6)]Man(b1-4)GlcNAc(b1-4)[Fuc(a1-6)]GlcNAc
# In short: as §1
# [5] = molecular target: Gal(b1-4)GlcNAc(b1-3)Gal(b1-4)GlcNAc(b1-2)[Gal(b1-4)GlcNAc(b1-3)Gal(b1-4)GlcNAc(b1-6)]Man(a1-6)[Gal(b1-4)GlcNAc(b1-3)Gal(b1-4)GlcNAc(b1-2)Man(a1-3)]Man(b1-4)GlcNAc(b1-4)GlcNAc
# In short: as §1
# [6] = molecular target: Gal(b1-4)GlcNAc(b1-3)Gal(b1-4)GlcNAc(b1-2)[Gal(b1-4)GlcNAc(b1-3)Gal(b1-4)GlcNAc(b1-6)]Man(a1-6)[Gal(b1-4)GlcNAc(b1-3)Gal(b1-4)GlcNAc(b1-2)Man(a1-3)]Man(b1-4)GlcNAc(b1-4)[Fuc(a1-6)]GlcNAc
# In short: as §1
# [7] = molecular target: Gal(b1-4)GlcNAc(b1-3)Gal(b1-4)GlcNAc(b1-3)Gal(b1-4)GlcNAc
# In short: as §1
# [8] = molecular target: Gal(b1-4)GlcNAc(b1-3)Gal(b1-4)GlcNAc(b1-3)Gal(b1-4)GlcNAc(b1-2)Man(a1-3)[Gal(b1-4)GlcNAc(b1-3)Gal(b1-4)GlcNAc(b1-3)Gal(b1-4)GlcNAc(b1-2)Man(a1-6)]Man(b1-4)GlcNAc(b1-4)GlcNAc
# In short: as §1
# [9] = molecular target: Gal(b1-4)GlcNAc(b1-3)Gal(b1-4)GlcNAc(b1-3)Gal(b1-4)GlcNAc(b1-2)Man(a1-3)[Gal(b1-4)GlcNAc(b1-3)Gal(b1-4)GlcNAc(b1-3)Gal(b1-4)GlcNAc(b1-2)Man(a1-6)]Man(b1-4)GlcNAc(b1-4)[Fuc(a1-6)]GlcNAc
# In short: as §1
# [10] = molecular target: Gal(b1-4)GlcNAc(b1-3)Gal(b1-4)GlcNAc(b1-3)Gal(b1-4)GlcNAc(b1-2)[Gal(b1-4)GlcNAc(b1-3)Gal(b1-4)GlcNAc(b1-3)Gal(b1-4)GlcNAc(b1-6)]Man(a1-6)[Gal(b1-4)GlcNAc(b1-3)Gal(b1-4)GlcNAc(b1-3)Gal(b1-4)GlcNAc(b1-2)Man(a1-3)]Man(b1-4)GlcNAc(b1-4)[Fuc(a1-6)]GlcNAc
# In short: as §1
# [11] = molecular target: Gal(b1-4)GlcNAc(b1-3)Gal(b1-4)GlcNAc(b1-3)Gal(b1-4)GlcNAc(b1-3)Gal(b1-4)GlcNAc(b1-2)Man(a1-3)[Gal(b1-4)GlcNAc(b1-3)Gal(b1-4)GlcNAc(b1-3)Gal(b1-4)GlcNAc(b1-3)Gal(b1-4)GlcNAc(b1-2)Man(a1-6)]Man(b1-4)GlcNAc(b1-4)GlcNAc
# In short: as §1
# [12] = molecular target: Gal(b1-4)GlcNAc(b1-3)Gal(b1-4)GlcNAc(b1-3)Gal(b1-4)GlcNAc(b1-3)Gal(b1-4)GlcNAc(b1-2)Man(a1-3)[Gal(b1-4)GlcNAc(b1-3)Gal(b1-4)GlcNAc(b1-3)Gal(b1-4)GlcNAc(b1-3)Gal(b1-4)GlcNAc(b1-2)Man(a1-6)]Man(b1-4)GlcNAc(b1-4)[Fuc(a1-6)]GlcNAc
# In short: as §1
# [13] = molecular target: Gal(b1-4)GlcNAc(b1-3)Gal(b1-4)GlcNAc(b1-3)Gal(b1-4)GlcNAc(b1-3)Gal(b1-4)GlcNAc(b1-2)[Gal(b1-4)GlcNAc(b1-3)Gal(b1-4)GlcNAc(b1-3)Gal(b1-4)GlcNAc(b1-3)Gal(b1-4)GlcNAc(b1-6)]Man(a1-6)[Gal(b1-4)GlcNAc(b1-3)Gal(b1-4)GlcNAc(b1-3)Gal(b1-4)GlcNAc(b1-3)Gal(b1-4)GlcNAc(b1-2)Man(a1-3)]Man(b1-4)GlcNAc(b1-4)[Fuc(a1-6)]GlcNAc
# In short: as §1
# [14] = molecular target: Gal(b1-4)GlcNAc(b1-3)Gal(b1-4)GlcNAc(b1-3)Gal(b1-4)GlcNAc(b1-3)Gal(b1-4)GlcNAc(b1-3)Gal(b1-4)GlcNAc(b1-2)Man(a1-3)[Gal(b1-4)GlcNAc(b1-3)Gal(b1-4)GlcNAc(b1-3)Gal(b1-4)GlcNAc(b1-3)Gal(b1-4)GlcNAc(b1-3)Gal(b1-4)GlcNAc(b1-2)Man(a1-6)]Man(b1-4)GlcNAc(b1-4)GlcNAc
# In short: as §1
# [15] = molecular target: Gal(b1-4)GlcNAc(b1-3)Gal(b1-4)GlcNAc(b1-3)Gal(b1-4)GlcNAc(b1-3)Gal(b1-4)GlcNAc(b1-3)Gal(b1-4)GlcNAc(b1-2)Man(a1-3)[Gal(b1-4)GlcNAc(b1-3)Gal(b1-4)GlcNAc(b1-3)Gal(b1-4)GlcNAc(b1-3)Gal(b1-4)GlcNAc(b1-3)Gal(b1-4)GlcNAc(b1-2)Man(a1-6)]Man(b1-4)GlcNAc(b1-4)[Fuc(a1-6)]GlcNAc
# In short: as §1
# [16] = molecular target: Gal(b1-4)GlcNAc(b1-3)Gal(b1-4)GlcNAc(b1-3)Gal(b1-4)GlcNAc(b1-3)Gal(b1-4)GlcNAc(b1-3)Gal(b1-4)GlcNAc(b1-2)[Gal(b1-4)GlcNAc(b1-3)Gal(b1-4)GlcNAc(b1-3)Gal(b1-4)GlcNAc(b1-3)Gal(b1-4)GlcNAc(b1-3)Gal(b1-4)GlcNAc(b1-6)]Man(a1-6)[Gal(b1-4)GlcNAc(b1-3)Gal(b1-4)GlcNAc(b1-3)Gal(b1-4)GlcNAc(b1-3)Gal(b1-4)GlcNAc(b1-3)Gal(b1-4)GlcNAc(b1-2)Man(a1-3)]Man(b1-4)GlcNAc(b1-4)[Fuc(a1-6)]GlcNAc
# In short: as §1
# [17] = molecular target: Gal(b1-4)GlcNAc(b1-3)Gal(b1-4)GlcNAc(b1-3)Gal(b1-4)GlcNAc(b1-3)Gal(b1-4)GlcNAc(b1-3)Gal(b1-4)GlcNAc(b1-3)Gal(b1-4)GlcNAc(b1-2)Man(a1-3)[Gal(b1-4)GlcNAc(b1-3)Gal(b1-4)GlcNAc(b1-3)Gal(b1-4)GlcNAc(b1-3)Gal(b1-4)GlcNAc(b1-3)Gal(b1-4)GlcNAc(b1-3)Gal(b1-4)GlcNAc(b1-2)Man(a1-6)]Man(b1-4)GlcNAc(b1-4)GlcNAc
# In short: as §1
# [18] = molecular target: Gal(b1-4)GlcNAc(b1-3)Gal(b1-4)GlcNAc(b1-3)GalNAc
# In short: as §1
# [19] = molecular target: Gal(b1-4)GlcNAc(b1-3)Gal(b1-4)GlcNAc(b1-3)[Gal(b1-4)GlcNAc(b1-3)Gal(b1-4)GlcNAc(b1-6)]GalNAc
# In short: as §1
binder,measurement,setting,value
B1,glycan array binding signal (z-score),[1],-0.647
same,glycan array binding signal (z-score),[2],-1.78
same,glycan array binding signal (z-score),[3],1.58
same,glycan array binding signal (z-score),[4],-0.449
same,glycan array binding signal (z-score),[5],1.17
same,glycan array binding signal (z-score),[6],0.206
same,glycan array binding signal (z-score),[7],1.51
same,glycan array binding signal (z-score),[8],-0.046
same,glycan array binding signal (z-score),[9],1.26
same,glycan array binding signal (z-score),[10],1.76
same,glycan array binding signal (z-score),[11],1.28
same,glycan array binding signal (z-score),[12],1.48
same,glycan array binding signal (z-score),[13],-0.338
same,glycan array binding signal (z-score),[14],0.731
same,glycan array binding signal (z-score),[15],0.993
same,glycan array binding signal (z-score),[16],2.74
same,glycan array binding signal (z-score),[17],0.305
same,glycan array binding signal (z-score),[18],-0.361
same,glycan array binding signal (z-score),[19],1.18

# Random excerpt: 2 entries already listed, in no set order.
binder,measurement,setting,value
B1,glycan array binding signal (z-score),[10],1.76
same,glycan array binding signal (z-score),[3],1.58
